Results from PubChem BioAssay AID504444 (National Center for Advancing Translational Sciences (NCATS), 2011).
The whole screen tested about 360,000 compounds, of which about 7,500 (2.1%) were called active. Inconclusive results, whose numbers are uncertain, are shown with a selection of clear calls. Calls follow the shape of the dose curve; as a rule, active = well fitted inhibition curve with a large enough effect; inconclusive = small, poorly fitted or top-dose-only effect, or effect the other way; inactive = flat fitted curve, though single readings scatter. A potency beside an inconclusive call is a rough fit, not a confirmed value.

assay: Nrf2 qHTS screen for inhibitors; conditions: A549 ARE-Fluc reporter, luciferase luminescence, 18-24 h; activity change, negative = inhibition: at 46 µM (top of the series); also: nearly all actives have a fitted effect of over 60% in size
Outline: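 In this cell-based qHTS, ARE-driven firefly luciferase in A549 cells reports Nrf2 activity; the luminescent signal after BugLite lysis is the measured value, with a prior CellTiter-Fluor read for cell health.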
% is scaled to controls: 0 for no effect and ±100 for the full control effect; potency is read from the fitted curve at half-maximal effect.

SMILES	activity change, negative = inhibition	Potency
COc1ccc(Cl)cc1NC(=O)CN(c1cccc(C)c1C)S(=O)(=O)c1ccccc1	inactive: -2.69%	
Cc1cccc(Nc2ccccc2C(=O)NCc2ccco2)c1C		inconclusive: 29.1 µM [falling, single point]
Cn1c(=O)n(CC(=O)N2CCN(c3nnc(-c4ccccc4)c4ccccc34)CC2)c2ccccc21		inconclusive: 0.92 µM [falling, partial curve, poor fit]
O=S(=O)(Nc1ccc2cn[nH]c2c1)c1ccc(Cl)cc1		inconclusive: 23.1 µM [falling, single point]
O=C(CSc1nnc(-c2ccc3c(c2)OCO3)o1)Nc1ncc(Cl)cc1Cl		inconclusive: 18.4 µM [activator, single point]
COc1ccc(CCNC(=O)c2ccc3c(c2)N(Cc2cccc(Cl)c2)C(=O)CS3)cc1OC	inactive: -13.9% [at 9.27 µM]	
CCOc1ccc2[nH]c(=O)c(CN(CCO)C(=O)c3ccc(F)cc3)cc2c1	inactive: 5.55%	
Cc1cc(NC(=O)COc2ccccc2C)no1		inconclusive: 18.4 µM [activator, single point]
COc1ccc2c(c1)sc1ncc(C(=O)NCc3cccc(Cl)c3)c(=O)n12	inactive: -2.46%	
Cc1ccc(NC(=O)CCOc2ccccc2C)cc1C		inconclusive: 9.2 µM [activator, partial curve]
CCCn1nc2cc(C(=O)NCc3ccc(OC(F)(F)F)cc3)ccc2c1OCC		inconclusive: 16.4 µM [falling, partial curve, poor fit]
COCC(COCCCNC(=O)Nc1ccc(Br)cc1)OC (stereo not given)		inconclusive: 29.1 µM [activator, single point]
Oc1cc(NCCc2cccnc2)cc2cccnc12	inactive: 1.36%	
O=C(NCc1ccccc1)c1c(Cl)nc(Cl)c(Cl)c1Cl	inactive: -20.7%	
Cc1ccc(OCCn2cnc3ccccc3c2=O)c([N+](=O)[O-])c1		inconclusive: 9.2 µM [activator, partial curve]
O=C(N/N=C/C(Cl)=C/c1ccccc1)c1cnccn1		inconclusive: 6.51 µM [activator, full curve, poor fit]
Cc1ccc2oc(=O)n(CCCOc3ccc(Cl)cc3)c2c1		inconclusive: 16.4 µM [falling, partial curve, poor fit]
O=C(NCc1ccccn1)c1ccc(COc2ccc(Cl)cc2)o1		active: 23.1 µM
Cc1ccc(C(=O)N/C(=C\c2ccccc2)C(=O)NCc2cccnc2)cc1	inactive: 2.14%	
O=C(NC1CCS(=O)(=O)C1)c1cccc(Cl)c1 (stereo not given)	inactive: -11.5%	
Cc1cccc(OCCNC(=O)CCNS(=O)(=O)c2ccc3ccccc3c2)c1	inactive: -8.02%	
O=C(COc1ccc(Br)cc1)N1CCc2ccccc21		inconclusive: 25.9 µM [activator, single point]
CCOC(=O)c1sc(NC(=O)c2ccc(S(=O)(=O)N3CCOCC3)cc2)cc1C		inconclusive: 16.4 µM [falling, single point]
Cc1ccc(C(=O)Nn2cnc3ccccc3c2=O)cc1C		inconclusive: 3.26 µM [activator, full curve]

Copied from the list.
In Potency, Cc1ccc(NC(=O)CCOc2ccccc2C)cc1C is listed with inconclusive: 9.2 µM [activator, partial curve]
In Potency, O=C(NCc1ccccn1)c1ccc(COc2ccc(Cl)cc2)o1 is listed with active: 23.1 µM
In Potency, O=C(CSc1nnc(-c2ccc3c(c2)OCO3)o1)Nc1ncc(Cl)cc1Cl is listed with inconclusive: 18.4 µM [activator, single point]

The list continues:

SMILES	activity change, negative = inhibition	Potency
COc1ccc(Cl)c(Cn2c(NCc3ccco3)nc3c2c(=O)n(C)c(=O)n3C)c1		inconclusive: 25.9 µM [falling, single point]
O=C(NCCOCCn1c(=O)oc2ccccc21)Nc1ccc(Cl)cc1	inactive: -40.9%	
CCOc1ccc(CNC(=O)c2ccc3c(c2)c(C)c(C)n3Cc2ccc(Cl)cc2)cc1		inconclusive: 29.1 µM [falling, single point]
O=[N+]([O-])c1cc(-n2cnnn2)ccc1N1CCC(Cc2ccccc2)CC1		active: 10.3 µM
COC(=O)c1ccc(COc2ccccc2/C=C(\C#N)C(=O)Nc2ccccc2C)cc1	inactive: 6.46%	
COc1ccc(-c2cn3nc(C)c(C)nc3n2)cc1OC		inconclusive: 4.11 µM [activator, full curve, poor fit]
COc1ccc(-c2csc(Nc3cccc(C)n3)n2)cc1C		inconclusive: 2.31 µM [activator, full curve]
COc1cc(S(=O)(=O)N(C)Cc2ccc3c(c2)OCCO3)ccc1NC(C)=O		inconclusive: 20.6 µM [falling, single point]
COc1ccc(OC)c(S(=O)(=O)N2CCN(S(=O)(=O)c3ccc4c(c3)OCCO4)CC2)c1	inactive: -8.35%	
COc1ccc(C2=Nn3c(nnc3-c3ccc(OC)c(OC)c3)SC2)cc1OC	inactive: -18.6%	
Cc1csc(NC(=O)c2ccc(OCC3CCCO3)cc2)n1 (stereo not given)		inconclusive: 3.26 µM [activator, single point]
CCOc1cc(C)c(S(=O)(=O)Nc2ccc3cn[nH]c3c2)cc1C		inconclusive: 8.2 µM [falling, partial curve, poor fit]
C[C@@H](C(=O)NCCc1ccccc1F)N1C(=O)N2CCc3c([nH]c4ccccc34)[C@@]2(C)C1=O		inconclusive: 29.1 µM [falling, single point]
Nc1cc(S(=O)(=O)N2CCOCC2)ccc1Oc1ccc(F)cc1		inconclusive: 23.1 µM [falling, single point]
COc1ccccc1NC(=O)N1CCN(c2ccccn2)CC1	inactive: -19.8%	
CCOc1ccc(NS(=O)(=O)c2ccc(C(=O)NCC(c3ccc(OC)cc3)N3CCOCC3)cc2)cc1 (stereo not given)		inconclusive: 29.1 µM [falling, single point]
CCn1cnc2cc(NCc3ccc(OC)cc3)ccc21		inconclusive: 3.26 µM [activator, single point]
NC(=O)NC(=O)COC(=O)CCCSc1nc2ccccc2s1		inconclusive: 29.1 µM [falling, single point]
Cc1ccc(NC(=O)c2sc3ncnc(N4CCN(c5ccccn5)CC4)c3c2C)c(C)c1		inconclusive: 11.6 µM [falling, partial curve]
CCOc1ccc(N(C)S(=O)(=O)c2cc(-c3cc(C)no3)ccc2CC)cc1	inactive: -25.8%	
C[C@@H](NC(=O)c1nc[nH]c1C(=O)N[C@@H](Cc1ccccc1)C(=O)OC(C)(C)C)c1ccccc1		inconclusive: 18.4 µM [falling, single point]
O=C(/C=C/Nc1ccc(Oc2ccccc2Cl)cc1)c1ccco1		inconclusive: 18.4 µM [activator, partial curve]
COc1ccc(C(NCC(=O)NC(C)c2ccc(Cl)cc2)c2ccccc2)cc1 (stereo not given)		active: 14.6 µM
Cc1cccc(NC(=O)c2ccc3c(c2)OCCO3)n1		inconclusive: 11.6 µM [activator, partial curve, poor fit]

SMILES	activity change, negative = inhibition	Potency
CC(C)/C=C/CN1CCN(CCCc2ccccc2)C(CCO)C1 (stereo not given)		inconclusive: 25.9 µM [falling, single point]
Cc1nc(Cl)cc(N/N=C/c2ccc(O)cc2O)n1		inconclusive: 25.9 µM [falling, single point]
COc1cc(OC)c(Nc2nc3ccccc3nc2-n2nc(C)cc2C)cc1Cl	inactive: 9.73%	
COC(=O)c1ccccc1NC(=O)COC(=O)c1ccc(C)c(NC(=O)c2ccco2)c1		inconclusive: 20.6 µM [falling, partial curve, poor fit]
CNC(CC(=O)c1ccc([N+](=O)[O-])cc1)C(Cl)(Cl)Cl (stereo not given)		inconclusive: 32.6 µM [falling, single point]
N#CC1(c2ccccc2)CCC(=O)N1Cc1ccccc1 (stereo not given)		inconclusive: 20.6 µM [falling, partial curve]
O=[N+]([O-])c1ccc(N2CCN(Cc3cccc([N+](=O)[O-])c3)CC2)cc1		active: 20.6 µM
COc1ccc2oc(C(=O)OC(C)C(=O)N(C)c3ccccc3)c(C)c2c1 (stereo not given)		inconclusive: 29.1 µM [falling, partial curve, poor fit]
CCN(CC)C(=O)Cn1ncc2c1-c1ccccc1OC2		inconclusive: 32.6 µM [falling, single point]
CCOC(=O)c1ccc(N2C(=O)c3n[nH]c(-c4ccco4)c3C2c2ccc(O)c(OC)c2)cc1 (stereo not given)		inconclusive: 0.13 µM [falling, full curve, poor fit]
Cc1ccc(CNC(=O)c2nn(C)c3c2CS(=O)(=O)c2ccccc2-3)cc1		inactive
Cc1csc2nc(CN3CCN(CC(=O)N(C)C)CC3)cc(=O)n12		inconclusive: 3.66 µM [activator, single point]
O=C(O)/C(=C\c1ccco1)NC(=O)c1ccccc1	inactive: -9.48%	
Cc1cccc(N=C2NC(=O)/C(=C/c3cn(C)c4ccccc34)S2)c1		active: 14.6 µM
COc1ccc(-n2nc(C(=O)N3CCN(c4cccc(C)c4C)CC3)c3c4ccccc4n(C)c3c2=O)cc1	inactive: 21.2%	
CCC(C)OC(=O)/C(C#N)=C\c1ccc(-c2ccccc2Cl)o1 (stereo not given)	inactive: -1.37%	
CNC(=O)COc1ccc(NC(=O)CCn2nc(-c3ccc(C)cc3)c3ccccc3c2=O)cc1		inconclusive: 20.6 µM [falling, single point]
O=C(Cn1c(C(F)(F)F)nc2ccccc21)c1ccc(Br)cc1		inconclusive: 11.6 µM [falling, partial curve]
O=C1C(=O)C(c2ccccc2)C(=O)C1c1ccccc1 (stereo not given)		inconclusive: 5.17 µM [activator, full curve, poor fit]
O=C(Nc1ccc(Cl)c([N+](=O)[O-])c1)c1ccc2c(c1)OCCO2		inconclusive: 1.3 µM [activator, partial curve]
CC(C)OC(=O)NCCOC(=O)Nc1cccc(Cl)c1	inactive: -7.34%	
Cc1ccccc1C(=O)Nc1ccc2c(C#N)c3nc4ccccc4nc3n2c1		inconclusive: 23.1 µM [falling, partial curve, poor fit]
